The supplement of paper PMC10849652
The list shows a part of the results.

Protein sequences, listed by entry. Tags and fused reporters are not part of them. Lines headed by an entry give the natural chain unless they say otherwise; changes in a name come on top.
UniProt Q06587: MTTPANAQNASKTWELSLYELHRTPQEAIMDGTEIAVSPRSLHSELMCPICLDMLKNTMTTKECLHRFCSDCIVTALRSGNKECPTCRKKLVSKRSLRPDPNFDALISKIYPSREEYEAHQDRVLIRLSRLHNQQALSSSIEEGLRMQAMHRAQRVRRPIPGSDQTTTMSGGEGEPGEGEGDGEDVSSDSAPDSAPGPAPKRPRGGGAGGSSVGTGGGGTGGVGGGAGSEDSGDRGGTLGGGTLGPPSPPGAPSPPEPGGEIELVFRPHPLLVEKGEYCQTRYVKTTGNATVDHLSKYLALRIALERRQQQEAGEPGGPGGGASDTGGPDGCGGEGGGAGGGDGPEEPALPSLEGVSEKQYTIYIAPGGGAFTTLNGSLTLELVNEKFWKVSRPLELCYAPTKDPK
UniProt Q9UBS8: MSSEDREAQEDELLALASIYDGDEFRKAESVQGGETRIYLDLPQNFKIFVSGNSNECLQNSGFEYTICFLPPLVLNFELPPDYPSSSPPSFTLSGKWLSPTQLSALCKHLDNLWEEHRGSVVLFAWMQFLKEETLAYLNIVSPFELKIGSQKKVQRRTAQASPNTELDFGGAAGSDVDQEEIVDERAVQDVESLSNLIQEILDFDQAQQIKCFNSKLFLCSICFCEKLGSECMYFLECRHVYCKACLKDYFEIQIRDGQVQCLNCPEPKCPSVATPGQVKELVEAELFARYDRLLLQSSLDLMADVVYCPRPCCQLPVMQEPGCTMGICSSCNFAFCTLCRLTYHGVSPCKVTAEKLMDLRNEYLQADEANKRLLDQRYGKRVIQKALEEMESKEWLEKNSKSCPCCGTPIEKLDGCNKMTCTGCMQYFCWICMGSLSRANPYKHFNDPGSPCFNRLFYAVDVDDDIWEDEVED
UniProt Q96D71: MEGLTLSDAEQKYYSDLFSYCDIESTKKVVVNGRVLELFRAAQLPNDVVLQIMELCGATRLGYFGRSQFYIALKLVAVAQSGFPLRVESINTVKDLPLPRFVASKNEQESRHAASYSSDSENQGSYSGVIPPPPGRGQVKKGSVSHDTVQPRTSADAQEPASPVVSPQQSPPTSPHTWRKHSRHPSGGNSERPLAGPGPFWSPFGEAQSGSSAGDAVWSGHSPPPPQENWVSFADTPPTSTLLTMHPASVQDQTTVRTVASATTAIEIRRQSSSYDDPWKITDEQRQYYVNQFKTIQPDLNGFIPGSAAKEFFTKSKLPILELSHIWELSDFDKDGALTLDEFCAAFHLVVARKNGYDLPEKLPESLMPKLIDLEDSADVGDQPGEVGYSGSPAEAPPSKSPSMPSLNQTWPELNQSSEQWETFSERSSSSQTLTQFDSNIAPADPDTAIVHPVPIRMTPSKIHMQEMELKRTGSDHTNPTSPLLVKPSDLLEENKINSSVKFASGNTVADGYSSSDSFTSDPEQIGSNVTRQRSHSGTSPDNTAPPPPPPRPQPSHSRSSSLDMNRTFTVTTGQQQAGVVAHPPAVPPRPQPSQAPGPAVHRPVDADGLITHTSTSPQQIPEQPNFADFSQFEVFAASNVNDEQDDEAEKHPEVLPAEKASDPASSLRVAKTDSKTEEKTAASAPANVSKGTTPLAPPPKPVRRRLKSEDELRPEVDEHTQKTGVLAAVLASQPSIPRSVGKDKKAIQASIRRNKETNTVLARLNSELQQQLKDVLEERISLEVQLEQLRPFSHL
UniProt Q969G6: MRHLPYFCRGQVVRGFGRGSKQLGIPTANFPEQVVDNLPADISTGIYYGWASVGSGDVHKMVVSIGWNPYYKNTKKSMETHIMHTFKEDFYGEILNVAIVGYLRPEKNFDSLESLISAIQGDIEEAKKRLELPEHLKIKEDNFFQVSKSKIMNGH
UniProt Q8WZ73: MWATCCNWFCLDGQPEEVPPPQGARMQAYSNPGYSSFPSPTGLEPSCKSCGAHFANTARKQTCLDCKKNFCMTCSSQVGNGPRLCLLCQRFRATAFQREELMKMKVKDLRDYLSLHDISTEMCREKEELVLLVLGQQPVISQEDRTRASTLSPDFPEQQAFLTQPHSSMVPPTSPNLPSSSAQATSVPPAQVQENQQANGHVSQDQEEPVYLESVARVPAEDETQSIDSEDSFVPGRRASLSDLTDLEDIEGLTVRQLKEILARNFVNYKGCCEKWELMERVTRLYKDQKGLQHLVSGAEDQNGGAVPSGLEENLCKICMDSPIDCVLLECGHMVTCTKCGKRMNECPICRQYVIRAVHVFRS
UniProt Q9BWE0: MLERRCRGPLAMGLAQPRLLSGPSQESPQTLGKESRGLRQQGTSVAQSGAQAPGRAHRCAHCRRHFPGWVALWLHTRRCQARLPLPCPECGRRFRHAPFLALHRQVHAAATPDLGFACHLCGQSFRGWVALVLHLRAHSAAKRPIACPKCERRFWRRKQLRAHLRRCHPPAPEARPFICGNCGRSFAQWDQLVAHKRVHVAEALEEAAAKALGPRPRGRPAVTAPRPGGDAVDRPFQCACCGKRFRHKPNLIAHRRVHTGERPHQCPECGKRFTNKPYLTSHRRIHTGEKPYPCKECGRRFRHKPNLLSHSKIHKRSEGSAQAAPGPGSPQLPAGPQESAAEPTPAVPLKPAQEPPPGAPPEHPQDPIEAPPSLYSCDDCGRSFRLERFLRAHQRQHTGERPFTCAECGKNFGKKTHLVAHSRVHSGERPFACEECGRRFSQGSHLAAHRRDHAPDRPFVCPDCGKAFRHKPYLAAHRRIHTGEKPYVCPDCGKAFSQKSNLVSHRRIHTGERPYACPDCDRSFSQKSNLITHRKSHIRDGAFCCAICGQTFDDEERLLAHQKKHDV
UniProt Q9ULI2: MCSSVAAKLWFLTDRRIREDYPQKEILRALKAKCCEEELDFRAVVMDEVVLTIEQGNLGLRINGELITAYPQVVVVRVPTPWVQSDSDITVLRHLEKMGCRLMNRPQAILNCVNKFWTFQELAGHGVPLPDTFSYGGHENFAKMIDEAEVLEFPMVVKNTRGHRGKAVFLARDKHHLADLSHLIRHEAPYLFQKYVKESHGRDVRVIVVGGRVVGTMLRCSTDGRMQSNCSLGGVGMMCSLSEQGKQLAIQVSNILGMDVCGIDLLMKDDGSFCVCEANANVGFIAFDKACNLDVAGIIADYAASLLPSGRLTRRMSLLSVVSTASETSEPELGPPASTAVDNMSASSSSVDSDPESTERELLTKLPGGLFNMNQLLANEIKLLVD
UniProt Q9P0P0: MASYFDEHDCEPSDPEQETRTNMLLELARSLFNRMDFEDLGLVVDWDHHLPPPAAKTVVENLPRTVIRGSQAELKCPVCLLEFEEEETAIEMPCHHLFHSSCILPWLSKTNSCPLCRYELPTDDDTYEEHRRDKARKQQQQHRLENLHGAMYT
UniProt P52758: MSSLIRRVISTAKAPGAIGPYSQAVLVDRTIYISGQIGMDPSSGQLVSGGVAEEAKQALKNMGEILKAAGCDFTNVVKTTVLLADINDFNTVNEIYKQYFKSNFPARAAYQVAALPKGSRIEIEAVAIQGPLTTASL
UniProt Q5VTR2, whole entry, looked up: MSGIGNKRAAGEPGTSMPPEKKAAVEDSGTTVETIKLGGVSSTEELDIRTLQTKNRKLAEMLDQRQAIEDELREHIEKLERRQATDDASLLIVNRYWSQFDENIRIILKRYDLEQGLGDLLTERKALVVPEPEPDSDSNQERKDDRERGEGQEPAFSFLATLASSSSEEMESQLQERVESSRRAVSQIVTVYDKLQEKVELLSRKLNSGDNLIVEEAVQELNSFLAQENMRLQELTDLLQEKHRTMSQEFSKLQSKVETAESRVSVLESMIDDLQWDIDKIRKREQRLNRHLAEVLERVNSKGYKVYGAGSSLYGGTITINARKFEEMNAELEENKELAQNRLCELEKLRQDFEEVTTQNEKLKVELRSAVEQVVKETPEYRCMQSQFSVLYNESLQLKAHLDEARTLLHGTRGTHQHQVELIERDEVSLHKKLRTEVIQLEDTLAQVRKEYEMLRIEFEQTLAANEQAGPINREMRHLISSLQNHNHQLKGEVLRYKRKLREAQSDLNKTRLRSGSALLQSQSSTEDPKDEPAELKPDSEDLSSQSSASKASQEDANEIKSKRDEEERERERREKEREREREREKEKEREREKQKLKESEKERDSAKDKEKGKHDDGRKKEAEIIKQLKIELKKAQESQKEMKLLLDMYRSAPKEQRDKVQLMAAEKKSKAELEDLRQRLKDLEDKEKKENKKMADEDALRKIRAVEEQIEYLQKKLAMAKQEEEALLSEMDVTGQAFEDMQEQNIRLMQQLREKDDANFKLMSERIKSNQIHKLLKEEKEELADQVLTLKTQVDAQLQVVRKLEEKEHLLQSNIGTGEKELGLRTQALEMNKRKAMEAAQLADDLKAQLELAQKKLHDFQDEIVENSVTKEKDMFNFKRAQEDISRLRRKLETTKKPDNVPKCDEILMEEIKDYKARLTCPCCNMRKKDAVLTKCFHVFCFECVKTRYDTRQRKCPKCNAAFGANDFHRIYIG
UniProt Q9Y580: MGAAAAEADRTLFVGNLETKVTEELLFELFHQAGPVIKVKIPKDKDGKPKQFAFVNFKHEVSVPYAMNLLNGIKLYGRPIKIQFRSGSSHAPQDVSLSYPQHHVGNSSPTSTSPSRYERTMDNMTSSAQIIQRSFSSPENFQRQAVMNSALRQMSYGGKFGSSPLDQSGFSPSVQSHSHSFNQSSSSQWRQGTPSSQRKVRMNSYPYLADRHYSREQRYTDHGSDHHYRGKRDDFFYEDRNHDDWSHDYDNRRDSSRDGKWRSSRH
UniProt P18754: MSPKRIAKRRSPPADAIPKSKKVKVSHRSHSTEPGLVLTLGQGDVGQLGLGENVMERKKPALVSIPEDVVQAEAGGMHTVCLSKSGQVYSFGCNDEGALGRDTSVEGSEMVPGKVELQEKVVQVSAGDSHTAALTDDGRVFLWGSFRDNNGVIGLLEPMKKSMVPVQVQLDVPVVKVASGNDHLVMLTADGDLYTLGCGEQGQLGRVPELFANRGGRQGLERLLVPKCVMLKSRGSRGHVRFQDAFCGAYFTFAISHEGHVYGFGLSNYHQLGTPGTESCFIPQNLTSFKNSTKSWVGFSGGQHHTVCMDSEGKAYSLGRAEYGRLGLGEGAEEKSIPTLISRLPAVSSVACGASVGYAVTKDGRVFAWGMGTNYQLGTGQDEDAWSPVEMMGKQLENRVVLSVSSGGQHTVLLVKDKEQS
UniProt Q8WVD3: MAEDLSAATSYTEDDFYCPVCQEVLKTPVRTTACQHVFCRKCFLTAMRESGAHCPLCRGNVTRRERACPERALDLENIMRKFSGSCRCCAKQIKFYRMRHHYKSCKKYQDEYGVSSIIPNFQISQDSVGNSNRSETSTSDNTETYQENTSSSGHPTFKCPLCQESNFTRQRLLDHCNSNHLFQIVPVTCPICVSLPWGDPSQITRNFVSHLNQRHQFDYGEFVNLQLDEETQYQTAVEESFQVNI
UniProt Q96K19: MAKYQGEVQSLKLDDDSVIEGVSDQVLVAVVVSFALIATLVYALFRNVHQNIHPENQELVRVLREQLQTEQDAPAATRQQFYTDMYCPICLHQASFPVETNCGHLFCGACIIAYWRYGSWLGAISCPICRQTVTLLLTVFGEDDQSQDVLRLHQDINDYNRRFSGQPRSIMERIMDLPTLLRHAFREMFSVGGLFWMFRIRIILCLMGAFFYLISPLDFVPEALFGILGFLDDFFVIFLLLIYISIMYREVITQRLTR
UniProt Q5VTB9: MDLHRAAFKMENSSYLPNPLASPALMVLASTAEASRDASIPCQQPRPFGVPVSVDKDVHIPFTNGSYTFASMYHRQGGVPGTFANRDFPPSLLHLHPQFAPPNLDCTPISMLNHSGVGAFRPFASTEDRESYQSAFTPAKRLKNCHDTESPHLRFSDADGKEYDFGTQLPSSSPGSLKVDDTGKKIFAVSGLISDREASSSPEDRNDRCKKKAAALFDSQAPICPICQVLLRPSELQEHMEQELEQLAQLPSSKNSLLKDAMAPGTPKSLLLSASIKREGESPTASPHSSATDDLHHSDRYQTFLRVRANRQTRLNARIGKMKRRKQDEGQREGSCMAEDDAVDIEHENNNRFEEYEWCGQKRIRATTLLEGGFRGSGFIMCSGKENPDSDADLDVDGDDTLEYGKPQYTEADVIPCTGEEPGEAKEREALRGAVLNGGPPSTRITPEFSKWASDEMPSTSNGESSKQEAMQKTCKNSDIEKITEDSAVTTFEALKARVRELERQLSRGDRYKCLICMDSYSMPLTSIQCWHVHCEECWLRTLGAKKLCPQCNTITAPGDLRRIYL
UniProt Q6NUK4: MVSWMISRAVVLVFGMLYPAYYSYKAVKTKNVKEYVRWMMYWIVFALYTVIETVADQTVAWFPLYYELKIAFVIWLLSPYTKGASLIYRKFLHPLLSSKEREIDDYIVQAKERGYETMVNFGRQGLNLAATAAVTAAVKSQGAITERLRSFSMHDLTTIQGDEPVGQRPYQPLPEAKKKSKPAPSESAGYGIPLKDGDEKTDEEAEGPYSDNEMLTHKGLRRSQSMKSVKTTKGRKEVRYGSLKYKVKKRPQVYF
UniProt Q8TAC1: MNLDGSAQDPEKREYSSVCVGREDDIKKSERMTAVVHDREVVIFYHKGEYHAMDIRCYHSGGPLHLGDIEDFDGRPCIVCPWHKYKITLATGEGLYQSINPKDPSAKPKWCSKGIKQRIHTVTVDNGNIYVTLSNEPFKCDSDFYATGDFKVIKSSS

Each target was assayed with CC[C@@H]1C(=O)N(C)c2cnc(Nc3ccc(C(=O)NC4CCN(C)CC4)cc3OC)nc2N1C1CCCC1 (assay: log2 fold change, soluble protein after heating vs DMSO (PISA); higher = thermal stabilisation; K562 cells, 10 uM, 30 min; active = over 0.2 and 3.5 SD of the protein, either way, in both replicates (recomputed)).
Procedure, shortened: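 K562 cells at 2×10^6 cells/mL were given 10 μM compound for 30 min. Aliquots then went through 3 min of heating across 48°C-58°C, were pooled, and were extracted in PBS with 0.5% NP-40 at 4°C, and the supernatant after 21,000xg for 90 min was quantified by TMTpro 16plex LC-MS/MS with channel sums equalised. Thermal stability relative to control samples, from duplicates, is given as log2 fold change.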

log2 fold change, inactive:
RELN (UniProt P78509) 0.011
RING1 (UniProt Q06587) -0.076
RNF14 (UniProt Q9UBS8) -0.054
RNASE4 (UniProt P34096) -0.018
RBM42 (UniProt Q9BTD8) 0.123
RFC5 (UniProt P40937) -0.015
REPS1 (UniProt Q96D71) 0.069
RFK (UniProt Q969G6) 0.024
RNF126 (UniProt Q9BV68) 0.002
RFFL (UniProt Q8WZ73) 0.002
REPIN1 isoform 4 (UniProt Q9BWE0) -0.018
RIPK2 (UniProt O43353) -0.083
RIMKLB (UniProt Q9ULI2) 0.259
RCHY1 (UniProt Q96PM5) -0.06
RHOG (UniProt P84095) 0.011
RNF181 (UniProt Q9P0P0) 0.024
RHOC (UniProt P08134) 0.06
RBM4 (UniProt Q9BWF3) -0.043
RMDN1 (UniProt Q96DB5) -0.079
RIDA (UniProt P52758) 0.011
RILP (UniProt Q96NA2) -0.058
RNF20 (UniProt Q5VTR2) -0.16
RNASEH2B (UniProt Q5TBB1) -0.142
RBM7 (UniProt Q9Y580) -0.036
RCC1 isoform 2 (UniProt P18754) -0.037
RBP5 (UniProt P82980) 0.22
RNF138 (UniProt Q8WVD3) -0.105
RNF170 (UniProt Q96K19) -0.132
RMND5A (UniProt Q9H871) -0.037
RFC4 (UniProt P35249) -0.029
RFXAP (UniProt O00287) 0.052
RIF1 (UniProt Q5UIP0) -0.023
RNF220 (UniProt Q5VTB9) -0.047
REEP3 (UniProt Q6NUK4) 0.02
RCCD1 (UniProt A6NED2) -0.068
RCC2 (UniProt Q9P258) -0.024
RFC2 (UniProt P35250) -0.03
RFESD isoform 2 (UniProt Q8TAC1) 0.026
RIOK2 (UniProt Q9BVS4) 0.133
